Results reported in the supplement of paper PMC10849652.
Some of the results follow.

Amino acid sequences for entries named in this document (tags omitted). A change or cut given only in a name is not applied to a line headed by its entry.
UniProt Q8NA19: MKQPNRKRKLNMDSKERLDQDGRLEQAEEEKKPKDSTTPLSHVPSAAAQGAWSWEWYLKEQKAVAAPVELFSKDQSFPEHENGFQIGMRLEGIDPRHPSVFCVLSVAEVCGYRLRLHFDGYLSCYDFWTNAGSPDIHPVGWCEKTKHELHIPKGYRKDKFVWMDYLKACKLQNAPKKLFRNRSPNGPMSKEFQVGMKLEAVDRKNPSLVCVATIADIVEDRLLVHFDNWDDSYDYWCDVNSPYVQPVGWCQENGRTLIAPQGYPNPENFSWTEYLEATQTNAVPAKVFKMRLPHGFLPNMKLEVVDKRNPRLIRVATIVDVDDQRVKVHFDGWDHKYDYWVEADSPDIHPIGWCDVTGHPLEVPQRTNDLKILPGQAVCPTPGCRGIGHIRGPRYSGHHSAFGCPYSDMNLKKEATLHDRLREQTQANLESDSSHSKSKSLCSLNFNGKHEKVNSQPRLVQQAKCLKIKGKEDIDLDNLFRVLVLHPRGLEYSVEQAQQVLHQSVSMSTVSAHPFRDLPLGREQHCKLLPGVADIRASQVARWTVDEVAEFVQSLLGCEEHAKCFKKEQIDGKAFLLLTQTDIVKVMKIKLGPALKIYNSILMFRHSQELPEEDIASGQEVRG
UniProt O15037: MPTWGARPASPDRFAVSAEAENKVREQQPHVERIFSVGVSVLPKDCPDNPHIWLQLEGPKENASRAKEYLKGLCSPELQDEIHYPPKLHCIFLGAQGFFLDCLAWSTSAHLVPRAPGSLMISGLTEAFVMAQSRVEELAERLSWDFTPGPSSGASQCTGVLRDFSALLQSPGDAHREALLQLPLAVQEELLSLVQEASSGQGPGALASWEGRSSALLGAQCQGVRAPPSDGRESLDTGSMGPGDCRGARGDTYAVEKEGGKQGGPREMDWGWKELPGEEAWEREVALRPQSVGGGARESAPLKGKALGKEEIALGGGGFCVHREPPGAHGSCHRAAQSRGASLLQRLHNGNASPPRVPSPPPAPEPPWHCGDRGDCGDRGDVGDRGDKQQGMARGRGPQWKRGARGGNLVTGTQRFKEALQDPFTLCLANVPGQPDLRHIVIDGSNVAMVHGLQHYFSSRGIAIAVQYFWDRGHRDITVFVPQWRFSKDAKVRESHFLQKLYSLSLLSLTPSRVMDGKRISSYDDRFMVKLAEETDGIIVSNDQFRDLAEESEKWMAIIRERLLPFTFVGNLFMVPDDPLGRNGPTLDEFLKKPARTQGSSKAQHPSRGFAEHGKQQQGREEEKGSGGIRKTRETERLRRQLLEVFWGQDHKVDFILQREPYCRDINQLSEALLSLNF
UniProt P13473: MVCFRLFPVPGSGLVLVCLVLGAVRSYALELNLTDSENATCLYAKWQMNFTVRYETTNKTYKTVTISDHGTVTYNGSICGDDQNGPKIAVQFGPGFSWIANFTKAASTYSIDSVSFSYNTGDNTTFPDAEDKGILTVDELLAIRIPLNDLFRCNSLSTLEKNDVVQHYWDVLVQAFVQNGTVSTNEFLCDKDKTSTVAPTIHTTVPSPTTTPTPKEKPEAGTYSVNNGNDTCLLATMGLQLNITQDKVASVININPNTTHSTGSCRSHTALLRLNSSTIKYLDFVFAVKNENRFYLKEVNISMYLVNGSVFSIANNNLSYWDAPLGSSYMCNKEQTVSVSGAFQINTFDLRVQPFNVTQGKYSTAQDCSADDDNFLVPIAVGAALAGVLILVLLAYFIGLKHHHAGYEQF
UniProt Q9Y2U9: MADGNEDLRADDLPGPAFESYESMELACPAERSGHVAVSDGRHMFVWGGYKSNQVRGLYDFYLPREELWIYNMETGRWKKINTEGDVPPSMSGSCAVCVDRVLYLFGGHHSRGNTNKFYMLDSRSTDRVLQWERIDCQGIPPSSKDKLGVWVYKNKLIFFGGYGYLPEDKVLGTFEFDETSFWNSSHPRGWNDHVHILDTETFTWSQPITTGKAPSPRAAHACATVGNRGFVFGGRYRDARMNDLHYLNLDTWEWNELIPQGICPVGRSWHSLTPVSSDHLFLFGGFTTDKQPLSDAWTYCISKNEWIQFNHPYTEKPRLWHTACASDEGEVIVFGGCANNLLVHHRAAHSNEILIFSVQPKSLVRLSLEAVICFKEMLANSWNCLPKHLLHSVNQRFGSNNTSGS
UniProt Q86Y91: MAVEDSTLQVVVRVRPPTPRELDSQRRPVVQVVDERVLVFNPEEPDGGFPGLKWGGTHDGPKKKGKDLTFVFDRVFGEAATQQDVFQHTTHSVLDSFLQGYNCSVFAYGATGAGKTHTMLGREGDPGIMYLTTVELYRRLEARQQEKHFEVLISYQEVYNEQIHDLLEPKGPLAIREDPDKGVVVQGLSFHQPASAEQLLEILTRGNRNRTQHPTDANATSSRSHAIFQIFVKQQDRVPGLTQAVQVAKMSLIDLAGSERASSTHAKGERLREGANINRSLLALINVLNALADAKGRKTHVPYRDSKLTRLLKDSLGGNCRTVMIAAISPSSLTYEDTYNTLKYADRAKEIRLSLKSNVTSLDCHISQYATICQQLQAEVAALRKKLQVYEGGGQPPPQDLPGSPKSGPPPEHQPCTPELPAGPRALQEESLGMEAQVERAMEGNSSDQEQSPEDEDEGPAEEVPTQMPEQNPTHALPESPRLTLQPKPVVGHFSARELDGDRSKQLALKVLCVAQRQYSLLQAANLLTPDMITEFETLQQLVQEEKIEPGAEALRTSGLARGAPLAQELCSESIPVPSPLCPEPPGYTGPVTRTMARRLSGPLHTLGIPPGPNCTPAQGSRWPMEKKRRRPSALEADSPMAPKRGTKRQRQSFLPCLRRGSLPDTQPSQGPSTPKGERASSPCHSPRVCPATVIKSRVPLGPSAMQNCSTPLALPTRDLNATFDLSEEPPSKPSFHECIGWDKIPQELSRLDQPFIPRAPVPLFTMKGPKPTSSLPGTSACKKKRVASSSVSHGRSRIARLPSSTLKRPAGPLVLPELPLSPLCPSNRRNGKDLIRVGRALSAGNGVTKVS
UniProt P07288: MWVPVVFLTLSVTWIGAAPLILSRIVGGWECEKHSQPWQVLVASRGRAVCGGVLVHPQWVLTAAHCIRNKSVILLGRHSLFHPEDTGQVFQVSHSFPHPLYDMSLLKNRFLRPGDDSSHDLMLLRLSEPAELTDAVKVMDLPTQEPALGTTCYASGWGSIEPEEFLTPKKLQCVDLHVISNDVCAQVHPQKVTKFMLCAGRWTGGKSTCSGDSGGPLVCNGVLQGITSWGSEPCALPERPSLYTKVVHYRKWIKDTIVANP
UniProt Q9UMN6, whole entry, looked up: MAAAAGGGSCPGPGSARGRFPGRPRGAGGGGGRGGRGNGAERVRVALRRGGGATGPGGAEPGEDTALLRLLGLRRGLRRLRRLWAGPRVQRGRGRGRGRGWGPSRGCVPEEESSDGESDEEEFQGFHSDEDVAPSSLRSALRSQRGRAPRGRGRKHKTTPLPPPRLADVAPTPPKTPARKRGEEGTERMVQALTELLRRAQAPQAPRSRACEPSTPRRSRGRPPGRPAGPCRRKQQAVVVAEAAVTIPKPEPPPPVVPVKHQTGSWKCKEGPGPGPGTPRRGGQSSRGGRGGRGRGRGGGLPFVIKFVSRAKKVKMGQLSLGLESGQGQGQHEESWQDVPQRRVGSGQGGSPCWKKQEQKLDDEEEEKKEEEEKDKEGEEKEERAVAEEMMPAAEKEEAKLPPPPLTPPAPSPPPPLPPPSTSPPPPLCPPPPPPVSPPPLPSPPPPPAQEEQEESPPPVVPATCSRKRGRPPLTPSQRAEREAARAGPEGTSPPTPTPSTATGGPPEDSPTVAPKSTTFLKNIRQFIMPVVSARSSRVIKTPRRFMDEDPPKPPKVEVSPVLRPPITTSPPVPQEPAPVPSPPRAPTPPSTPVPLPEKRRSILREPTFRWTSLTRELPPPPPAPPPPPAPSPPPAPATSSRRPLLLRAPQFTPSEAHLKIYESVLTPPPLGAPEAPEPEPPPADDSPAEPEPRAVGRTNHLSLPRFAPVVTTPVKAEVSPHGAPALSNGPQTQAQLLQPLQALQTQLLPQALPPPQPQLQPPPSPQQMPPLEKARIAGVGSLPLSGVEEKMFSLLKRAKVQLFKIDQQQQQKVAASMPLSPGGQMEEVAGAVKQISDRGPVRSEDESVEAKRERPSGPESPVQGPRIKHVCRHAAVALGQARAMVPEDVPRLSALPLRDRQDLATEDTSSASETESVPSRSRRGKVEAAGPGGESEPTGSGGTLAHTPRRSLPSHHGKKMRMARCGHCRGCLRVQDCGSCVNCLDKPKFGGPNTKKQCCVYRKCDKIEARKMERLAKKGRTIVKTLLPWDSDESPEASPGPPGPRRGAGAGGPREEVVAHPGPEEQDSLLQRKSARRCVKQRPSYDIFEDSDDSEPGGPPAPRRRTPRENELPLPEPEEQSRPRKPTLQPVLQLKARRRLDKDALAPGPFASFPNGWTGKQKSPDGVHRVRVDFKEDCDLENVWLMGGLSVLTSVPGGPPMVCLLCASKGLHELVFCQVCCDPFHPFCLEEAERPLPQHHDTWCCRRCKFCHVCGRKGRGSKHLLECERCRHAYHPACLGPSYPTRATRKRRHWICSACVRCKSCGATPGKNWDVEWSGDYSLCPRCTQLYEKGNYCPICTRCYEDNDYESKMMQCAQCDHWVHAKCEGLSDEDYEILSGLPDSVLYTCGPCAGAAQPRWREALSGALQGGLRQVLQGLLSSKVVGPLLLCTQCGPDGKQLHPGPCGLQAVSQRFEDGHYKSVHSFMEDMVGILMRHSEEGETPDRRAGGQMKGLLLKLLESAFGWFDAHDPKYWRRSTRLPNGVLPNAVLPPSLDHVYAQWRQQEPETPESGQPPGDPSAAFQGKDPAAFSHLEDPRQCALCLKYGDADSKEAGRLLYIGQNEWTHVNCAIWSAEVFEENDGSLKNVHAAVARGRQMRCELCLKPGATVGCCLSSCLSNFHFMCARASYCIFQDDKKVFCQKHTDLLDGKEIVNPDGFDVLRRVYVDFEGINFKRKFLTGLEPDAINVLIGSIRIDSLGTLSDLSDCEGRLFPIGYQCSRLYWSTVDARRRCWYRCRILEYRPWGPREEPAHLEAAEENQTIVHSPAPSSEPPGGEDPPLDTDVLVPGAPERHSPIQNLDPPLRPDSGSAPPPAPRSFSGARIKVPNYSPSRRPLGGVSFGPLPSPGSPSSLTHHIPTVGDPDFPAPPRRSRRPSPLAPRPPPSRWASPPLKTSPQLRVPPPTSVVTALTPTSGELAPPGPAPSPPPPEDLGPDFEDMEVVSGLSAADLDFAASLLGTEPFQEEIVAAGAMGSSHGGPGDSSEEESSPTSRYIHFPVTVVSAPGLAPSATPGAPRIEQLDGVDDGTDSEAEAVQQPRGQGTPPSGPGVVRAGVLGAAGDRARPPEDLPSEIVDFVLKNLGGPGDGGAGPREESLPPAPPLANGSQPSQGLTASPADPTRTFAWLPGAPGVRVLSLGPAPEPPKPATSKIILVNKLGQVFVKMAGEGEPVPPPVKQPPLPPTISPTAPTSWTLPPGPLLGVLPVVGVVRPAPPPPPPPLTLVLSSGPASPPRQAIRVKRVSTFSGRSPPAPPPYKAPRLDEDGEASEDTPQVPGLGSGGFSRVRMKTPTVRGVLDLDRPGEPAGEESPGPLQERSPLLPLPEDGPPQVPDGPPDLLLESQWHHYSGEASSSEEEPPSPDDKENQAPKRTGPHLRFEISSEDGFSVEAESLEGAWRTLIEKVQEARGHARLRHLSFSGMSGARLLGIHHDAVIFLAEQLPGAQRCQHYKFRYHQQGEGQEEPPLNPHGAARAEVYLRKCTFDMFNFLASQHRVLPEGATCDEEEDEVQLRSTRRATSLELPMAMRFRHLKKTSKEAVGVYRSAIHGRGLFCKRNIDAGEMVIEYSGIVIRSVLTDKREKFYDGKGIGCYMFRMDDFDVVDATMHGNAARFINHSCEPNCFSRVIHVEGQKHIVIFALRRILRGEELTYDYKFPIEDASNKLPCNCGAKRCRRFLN
UniProt Q07866: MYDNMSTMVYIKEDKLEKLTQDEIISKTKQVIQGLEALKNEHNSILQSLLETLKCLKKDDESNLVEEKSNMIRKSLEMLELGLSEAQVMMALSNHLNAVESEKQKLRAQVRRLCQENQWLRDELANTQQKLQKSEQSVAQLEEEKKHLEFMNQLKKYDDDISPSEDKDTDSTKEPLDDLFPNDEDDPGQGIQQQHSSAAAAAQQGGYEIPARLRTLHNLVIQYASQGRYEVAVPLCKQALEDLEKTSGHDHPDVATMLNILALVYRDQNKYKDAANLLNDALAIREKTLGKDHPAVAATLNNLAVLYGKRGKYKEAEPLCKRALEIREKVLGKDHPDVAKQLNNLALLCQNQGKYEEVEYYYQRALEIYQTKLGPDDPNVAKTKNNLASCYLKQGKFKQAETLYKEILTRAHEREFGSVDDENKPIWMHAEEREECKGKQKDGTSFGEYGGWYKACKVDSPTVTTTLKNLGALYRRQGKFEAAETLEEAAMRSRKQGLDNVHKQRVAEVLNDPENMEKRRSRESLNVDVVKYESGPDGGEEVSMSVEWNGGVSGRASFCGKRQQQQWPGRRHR

Experiments:
Test in all cases: log2 fold change, soluble protein after heating vs DMSO (PISA); higher = thermal stabilisation; K562 lysate, 10 uM; active = over 0.2 and 3.5 SD of the protein, either way, in both replicates (recomputed)
[1] = compound: Cc1cn(-c2cc(NC(=O)c3ccc(C)c(Nc4nccc(-c5cccnc5)n4)c3)cc(C(F)(F)F)c2)cn1 [nilotinib]
Procedure, shortened: (§1)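 Log-two fold change in thermal stability relative to solvent controls is reported from duplicates. For each sample, crude K562 extract from dounce-homogenised pellets in PBS pH 7.4 with 1 mM MgCl2, at 1 mg/mL protein, was treated with 10 μM compound for 30 min. Aliquots heated for 3 min across 48°C-58°C were pooled, brought to 0.5% NP-40 at 4°C and cleared at 21,000xg for 90 min. The supernatant was quantified by TMTpro 16plex LC-MS/MS with channel sums equalised.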

[2] = compound: Cc1nc(Nc2n[nH]c3c2CN(C(=O)N[C@H](CN(C)C)c2ccccc2)C3(C)C)c2sccc2n1
Procedure, shortened: as §1

[3] = compound: Cc1ncc(-c2ccnc(Nc3ccc(S(C)(=O)=O)cc3)n2)n1C(C)C
Procedure, shortened: as §1

[4] = compound: Cn1cc(CNCC2CCN(c3ncc(C(=O)NO)cn3)CC2)c2ccccc21 [quisinostat]
Procedure, shortened: as §1

[5] = compound: Cn1cncc1[C@@](N)(c1ccc(Cl)cc1)c1ccc2c(c1)c(-c1cccc(Cl)c1)cc(=O)n2C [tipifarnib]
Procedure, shortened: as §1

[6] = compound: NC(=O)Nc1cc(-c2cccc(F)c2)sc1C(=O)N[C@H]1CCCNC1
Procedure, shortened: as §1

[7] = compound: NC(=O)c1cnc(N[C@@H]2CCCC[C@@H]2N)nc1Nc1cccc(-n2nccn2)c1
Procedure, shortened: as §1

[8] = compound: Cc1nc(Nc2ncc(C(=O)Nc3c(C)cccc3Cl)s2)cc(N2CCN(CCO)CC2)n1 [dasatinib]
Procedure, shortened: as §1

[9] = compound: Cn1cc(-c2ccc3c(c2)CCN3C(=O)Cc2cccc(C(F)(F)F)c2)c2c(N)ncnc21
Procedure, shortened: as §1

[10] = compound: NC1(c2ccc(-c3nc4ccn5c(=O)[nH]nc5c4cc3-c3ccccc3)cc2)CCC1
Procedure, shortened: as §1

Measured: log2 fold change

L3MBTL4 (UniProt Q8NA19)
inactive: [1] -0.048 | [2] 0.054 | [3] 0.141 | [4] -0.109 | [5] 0.02 | [6] 0.026 | [7] -0.03

KHNYN (UniProt O15037)
inactive: [1] 0.096 | [2] 0.094 | [8] 0.011 | [3] -0.082 | [9] 0.023 | [4] -0.054 | [5] -0.115 | [6] -0.001 | [10] 0.088

KLC4 isoform 3 (UniProt Q9NSK0)
inactive: [1] -0.023 | [2] 0.047 | [8] -0.013 | [3] 0.089 | [9] 0.048 | [4] -0.018 | [5] -0.015 | [6] 0.01 | [7] 0.021 | [10] -0.003

KMT2E (UniProt Q8IZD2)
inactive: [1] -0.05 | [2] 0.01 | [8] 0.016 | [3] 0.019 | [9] -0.045 | [4] -0.282 | [5] -0.102 | [6] 0.024 | [10] 0.028

KDM4C (UniProt Q9H3R0)
inactive: [1] 0.069 | [2] -0.176 | [8] -0.072 | [3] -0.156 | [9] 0.02 | [5] -0.183

LANCL2 (UniProt Q9NS86)
inactive: [1] 0.008 | [2] 0.016 | [8] 0.021 | [3] 0.035 | [9] 0.02 | [4] -0.024 | [5] 0.002 | [6] 0.007 | [7] 0.016 | [10] -0.002

KISS1R (UniProt Q969F8)
inactive: [1] 0.042 | [2] -0.099 | [3] -0.005 | [4] -0.262 | [5] -0.014 | [6] 0.053

KLHL11 (UniProt Q9NVR0)
inactive: [1] 0.037 | [2] -0.019 | [8] -0.123 | [3] -0.031 | [9] 0.085 | [4] -0.046 | [5] 0.012 | [6] 0.063 | [10] -0.077

LAMP2 isoform 2 (UniProt P13473)
inactive: [1] -0.045 | [2] 0.039 | [3] 0.031 | [4] 0.118 | [5] 0.125 | [6] -0.016 | [10] 0.067

LAMA5 (UniProt O15230)
inactive: [8] -0.031 | [9] 0.161 | [4] -0.042 | [6] 0.079 | [10] -0.055

KIZ (UniProt Q2M2Z5)
inactive: [8] 0.016 | [9] -0.189 | [4] -0.039 | [6] 0.026 | [10] 0.086

KLHL20 (UniProt Q9Y2M5)
inactive: [8] -0.042 | [9] 0.003 | [4] 0.001 | [6] 0.042 | [7] 0.042 | [10] -0.019

LANCL3 (UniProt Q6ZV70)
inactive: [1] -0.193 | [2] -0.079 | [3] 0.079 | [5] -0.129

KLHDC2 (UniProt Q9Y2U9)
inactive: [4] 0.058 | [6] -0.077 | [10] -0.084

LAMA2 (UniProt P24043)
inactive: [1] 0.009 | [2] 0.017 | [3] -0.002 | [5] -0.109 | [7] 0.082 | [10] -0.073

LARGE2 (UniProt Q8N3Y3)
inactive: [1] -0.159 | [2] 0.065 | [3] -0.023 | [5] 0.101

KLHL17 (UniProt Q6TDP4)
inactive: [10] -0.044

KIAA1549 (UniProt Q9HCM3)
inactive: [1] -0.143 | [2] 0.026 | [3] -0.014 | [5] -0.262

KIAA0556 (UniProt O60303)
inactive: [1] -1.05 | [2] 0.164 | [3] 0.015 | [5] 0.298

KTN1 (UniProt G3V5Q0)
inactive: [10] -0.116

KREMEN1 isoform 2 (UniProt Q96MU8)
inactive: [4] -0.065 | [6] 0.047

LAPTM4A (UniProt Q15012)
inactive: [8] -0.169 | [9] 0.287

KRAS isoform 2 (UniProt P01116)
inactive: [8] -0.029 | [9] -0.025 | [4] 0.018 | [6] 0.001 | [7] -0.046 | [10] 0.036

KIF18B (UniProt Q86Y91)
inactive: [8] 0.073 | [9] 0.076 | [4] -0.025 | [6] 0.17 | [7] 0.025

KRT87P (UniProt A6NCN2)
inactive: [10] -0.123

KDM5A (UniProt P29375)
inactive: [8] -0.175 | [9] 0.124 | [4] -0.047 | [6] -0.012

KLHL22 (UniProt Q53GT1)
inactive: [8] 0.018 | [9] -0.136 | [10] 0.038

KLK3 (UniProt P07288)
inactive: [8] -0.963 | [9] 0.182

LACRT (UniProt Q9GZZ8)
inactive: [7] 0.122 | [10] 0.005

LAMB2 (UniProt P55268)
inactive: [8] -0.16 | [9] 0.147 | [10] 0.184

KPNA5 (UniProt O15131)
inactive: [1] -0.162 | [2] -0.098 | [3] 0.15 | [5] -0.028 | [10] 0.003

KRT13 (UniProt K7EMD9)
inactive: [10] -0.3

KRBA1 (UniProt A5PL33)
inactive: [8] 0.058 | [9] -0.094 | [4] -0.277 | [6] 0.205 | [7] 0.034 | [10] -0.077

KMT2B (UniProt Q9UMN6)
inactive: [8] 0.013 | [9] 0.108 | [4] 0.346 | [6] -0.047 | [10] 0.122

KIFC3 isoform 6 (UniProt Q9BVG8)
inactive: [8] -0.055 | [9] -0.146 | [4] -0.189 | [6] 0.079 | [10] -0.213

KLC1 isoform 10 (UniProt Q07866)
inactive: [10] -0.159

KDM5B isoform 2 (UniProt Q9UGL1)
inactive: [8] 0.021 | [9] -0.049 | [4] -0.117 | [6] -0.085 | [7] 0.034 | [10] -0.049

Fetched one by one from the entries so far, 2 records:
KLC1 isoform 10 (UniProt Q07866)
inactive: [10] -0.159

KRBA1 (UniProt A5PL33)
inactive: [8] 0.058 | [9] -0.094 | [4] -0.277 | [6] 0.205 | [7] 0.034 | [10] -0.077

The list continues:

KMT2D (UniProt O14686)
inactive: [8] -0.201 | [9] -0.045

KLF13 (UniProt Q9Y2Y9)
inactive: [4] -0.098 | [6] -0.002

LAPTM4B (UniProt Q86VI4)
inactive: [10] -0.022

KLF1 (UniProt Q13351)
inactive: [1] -0.022 | [2] -0.122 | [3] 0.018 | [5] -0.15 | [7] 0.07 | [10] 0.097
